Data as given in patent US11541107B2, “Peptides and T cells for use in immunotherapeutic treatment of various cancers” (Immatics Biotechnologies GmbH, priority 2015, dated 2023).

How the values were obtained:
[1] = test system: primary cancer tissue (A*24-positive samples); assay: Presentation of HLA-A*24-binding tumor-associated peptides on tumor and normal tissues (HLA immunoprecipitation, LC-MS, XPRESIDENT); set-up: species or system human; details: Table 9A; HLA-A*24-binding peptides; cancer entities on which the peptide was found presented
[2] = test system: source genes of the peptides; assay: Target coverage of source genes based on TCGA Research Network expression data; set-up: species or system human; details: for Target coverage, over-expression category of source gene, STAD (N = 415): Stomach adenocarcinoma; for Target coverage, over-expression category of source gene, TGCT (N = 156): Testicular germ cell tumors; for Target coverage, over-expression category of source gene, THYM (N = 120): Thymoma; for Target coverage, over-expression category of source gene, THCA (N = 513): Thyroid carcinoma; for Target coverage, over-expression category of source gene, UCS (N = 57): Uterine carcinosarcoma; for Target coverage, over-expression category of source gene, PRAD (N = 498): Prostate adenocarcinoma; for Target coverage, over-expression category of source gene, UCEC (N = 546): Uterine corpus endometrial carcinoma
[3] = cutoff more than 2-fold above highest 75% percentile of normal organs

Substance: 382 (AYLPPLQQVF; listed as Homo sapiens) [compound 382]
- ENTITIES [1]: PCA, HCC, NSCLC, GC, RCC, GB

Substance: 352: peptide found in ITGA2 (gene looked up) (QYGGDLTNTF; listed as Homo sapiens) [compound 352]
- Target coverage, over-expression category of source gene, STAD ([2]; Stomach adenocarcinoma (N = 415)): C (>=5% of tumors above the cutoff, but <20%)
- Target coverage, over-expression category of source gene, THYM ([2]; Thymoma (N = 120)): C (>=5% of tumors above the cutoff, but <20%)
- Target coverage, over-expression category of source gene, THCA ([2]; Thyroid carcinoma (N = 513)): C (>=5% of tumors above the cutoff, but <20%)

Substance: 244: peptide found in MMP13 (gene looked up) (VHFEDTGKTLLF; listed as Homo sapiens) [compound 244]
- Target coverage, over-expression category of source gene, STAD (N = 415) [2, 3]: C (>=5% of tumors above the cutoff, but <20%)
- Target coverage, over-expression category of source gene, TGCT (N = 156) [2, 3]: C (>=5% of tumors above the cutoff, but <20%)
- Target coverage, over-expression category of source gene, THYM (N = 120) [2, 3]: C (>=5% of tumors above the cutoff, but <20%)
- Target coverage, over-expression category of source gene, THCA (N = 513) [2, 3]: C (>=5% of tumors above the cutoff, but <20%)
- Target coverage, over-expression category of source gene, UCS (N = 57) [2, 3]: C (>=5% of tumors above the cutoff, but <20%)

Substance: 172: peptide found in MMP10 (gene looked up) (VFIFKGNEF; listed as Homo sapiens) [compound 172]
- Target coverage, over-expression category of source gene, PRAD (N = 498) [2, 3]: C (>=5% of tumors above the cutoff, but <20%)
- Target coverage, over-expression category of source gene, UCS (N = 57) [2, 3]: C (>=5% of tumors above the cutoff, but <20%)
- Target coverage, over-expression category of source gene, UCEC (N = 546) [2, 3]: C (>=5% of tumors above the cutoff, but <20%)

Substance: 128: peptide found in PLA2G7 (gene looked up) (VYPFDWQYI; listed as Homo sapiens) [compound 128]
- Target coverage, over-expression category of source gene, TGCT (N = 156) [2, 3]: C (>=5% of tumors above the cutoff, but <20%)

Substance: 162: peptide found in IFNG (gene looked up) (KYTSYILAF; listed as Homo sapiens) [compound 162]
- Target coverage, over-expression category of source gene, SARC (N = 263) ([2]; Sarcoma, cutoff more than 2-fold above highest 75% percentile of normal organs): C (>=5% of tumors above the cutoff, but <20%)
- Target coverage, over-expression category of source gene, STAD (N = 415) [2, 3]: C (>=5% of tumors above the cutoff, but <20%)
- Target coverage, over-expression category of source gene, THYM (N = 120) [2, 3]: C (>=5% of tumors above the cutoff, but <20%)
- Target coverage, over-expression category of source gene, UCEC (N = 546) [2, 3]: C (>=5% of tumors above the cutoff, but <20%)

Substance: 213: peptide found in SGK3 (gene looked up) (SYAPPSEDLFL; listed as Homo sapiens) [compound 213]
- Target coverage, over-expression category of source gene, SKCM (N = 473) ([2]; Skin cutaneous melanoma, cutoff more than 2-fold above highest 75% percentile of normal organs): C (>=5% of tumors above the cutoff, but <20%)
- Target coverage, over-expression category of source gene, THCA (N = 513) [2, 3]: C (>=5% of tumors above the cutoff, but <20%)

Substance: 321: peptide found in NME2 (gene looked up) (SLWFKPEEL; listed as Homo sapiens) [compound 321]
- Target coverage, over-expression category of source gene, PRAD (N = 498) [2, 3]: C (>=5% of tumors above the cutoff, but <20%)
- Target coverage, over-expression category of source gene, TGCT (N = 156) [2, 3]: C (>=5% of tumors above the cutoff, but <20%)

For part of these data: For expression read-outs the peptide stands for its source gene, whose mRNA was measured; the gene is not named for every peptide.
